Values of other authors in patent publication US20100297330A1, “YOGHURT CONTAINING HYDROXYTYROSOL AND OTHER BIOPHENOLS WITH A PREVENTIVE NUTRITIONAL ACTIVITY BENEFICIAL TO HUMAN BEINGS” (priority 2007, published 2010).
For at least one compound, name, drawing or mass did not settle the structure.

How the values were obtained:
[1] = system: Low-Density Lipoproteins (LDLs); conditions: cited from earlier work
[2] = system: human erythrocytes; conditions: protective action; cited from earlier work
[3] = system: epithelial cell monolayers; conditions: cell viability, membrane permeability; cited from earlier work

SMILES: OCCc1ccc(O)c(O)c1 [HT, Hydroxytyrosol]
- oxidation of Low-Density Lipoproteins (LDLs) [1]: retards the oxidation
- concentration at which HT is active in vitro [2]: ≥ 0.75 µg/mL
- protection against damage caused by hyperoxidation [3]: protects epithelial cell monolayers
